The list is a part of this screen's results and no random one: it is rich in T/C values a quarter to a half above the control, in often repeated tests (any T/C) and in doses without a T/C. Other doses and runs of a compound stand elsewhere. T/C is the treated group as % of the vehicle group. Some doses have a count of surviving animals in place of a T/C: the source holds a T/C of zero for them, seemingly a mark for toxic or unscored doses. Some doses without a T/C left all or most animals alive at the check, yet need not have been tolerated: survival well below the control is almost never listed, so the zero probably covers shortened survival too. Counts of survivors are from the toxicity check (mostly the fifth day) where no day follows; animals may have died later. Schedules are NCI's codes, taken here to give the interval after Q, in days (D) or hours (H), and the number of doses after X. Some schedules carry Z or #; the key to these is not given. For survival time, the PubChem record calls one and a half times the control and up active, and a quarter to a half above the control has no call in these data; cut-offs in other NCI protocols can differ. Some T/C values are followed by the survivors on the day toxicity was checked, most often the fifth; where none is given, no animal had died by that day.

T/C and survivor count data for 20 compounds are collected here from PubChem BioAssay AID248 (DTP/NCI, 2004).

This experiment has as its system L1210 leukemia ip in BDF1 mice, survival T/C. Nature of the experiment: NCI In Vivo Anticancer Drug Screen. Data for tumor model L1210 Leukemia (intraperitoneal) in B6D2F1 (BDF1) mice. The settings on record: higher T/C = longer survival.
Where [1] appears, read: T/C endpoint: mean survival time, dose: 200.0 mg/kg/injection, schedule: Q01DX009 (ip), vehicle: Klucel (hydroxypropylcellulose) (HPC).
Setting [2] is: T/C endpoint: mean survival time, dose: 400.0 mg/kg/injection, schedule: Q01DX009 (ip), vehicle: Klucel (hydroxypropylcellulose) (HPC).
The mark [3] stands for this setting: T/C endpoint: mean survival time, dose: 400.0 mg/kg/injection, schedule: Q04DX003 (ip), vehicle: saline with Tween-80.

On to `CCCCCCCC(=O)OCC(=O)[C@]1(O)Cc2c(O)c3c(c(O)c2[C@@H](OC2CC(N)C(O)C(C)O2)C1)C(=O)c1c(OC)cccc1C3=O` (some centres undefined), for which the T/C reads like this: (T/C endpoint: mean survival time, dose: 1.3 mg/kg/injection, schedule: Q04DX003 (ip), vehicle: alcohol) 133 % of control; (T/C endpoint: mean survival time, dose: 2.0 mg/kg/injection, schedule: Q04DX003 (ip), vehicle: alcohol) 138 % of control; (T/C endpoint: mean survival time, dose: 3.0 mg/kg/injection, schedule: Q04DX003 (ip), vehicle: alcohol) 141 % of control; (T/C endpoint: median survival time, dose: 0.5 mg/kg/injection, schedule: Q01DX009 (ip), vehicle: water) 131 % of control; (T/C endpoint: median survival time, dose: 0.5 mg/kg/injection, schedule: Q03HX008 (ip), vehicle: water) 144 % of control; (T/C endpoint: median survival time, dose: 0.5 mg/kg/injection, schedule: Q03HX024 (ip), vehicle: water) 131 % of control. In addition, the T/C was 127 % of control (T/C endpoint: median survival time, dose: 1.0 mg/kg/injection, schedule: Q01DX009 (ip), vehicle: water); 131 % of control [9 of 10 alive] (T/C endpoint: median survival time, dose: 1.0 mg/kg/injection, schedule: Q03HX008 (ip), vehicle: water); 131 % of control (T/C endpoint: median survival time, dose: 2.0 mg/kg/injection, schedule: Q01DX009 (ip), vehicle: water); 134 % of control (T/C endpoint: median survival time, dose: 5.0 mg/kg/injection, schedule: Q01DX001 (ip), vehicle: water); 134 % of control (T/C endpoint: median survival time, dose: 8.0 mg/kg/injection, schedule: Q04DX003 (ip), vehicle: water). Further, the survivor count (T/C endpoint: median survival time, dose: 2.0 mg/kg/injection, schedule: Q03HX024 (ip), vehicle: water) is reported as 10 of 10; the survivor count (T/C endpoint: median survival time, dose: 4.0 mg/kg/injection, schedule: Q03HX008 (ip), vehicle: water) was 4 of 10; the survivor count (T/C endpoint: median survival time, dose: 4.0 mg/kg/injection, schedule: Q03HX024 (ip), vehicle: water) is recorded as 2 of 10; the survivor count (T/C endpoint: median survival time, dose: 8.0 mg/kg/injection, schedule: Q01DX009 (ip), vehicle: water) was 10 of 10; the survivor count (T/C endpoint: median survival time, dose: 8.0 mg/kg/injection, schedule: Q03HX008 (ip), vehicle: water) is reported as 0 of 10; the survivor count (T/C endpoint: median survival time, dose: 16.0 mg/kg/injection, schedule: Q04DX003 (ip), vehicle: water) was 10 of 10. In addition, the survivor count is, setting by setting: (T/C endpoint: median survival time, dose: 20.0 mg/kg/injection, schedule: Q01DX001 (ip), vehicle: water) 8 of 10; (T/C endpoint: median survival time, dose: 40.0 mg/kg/injection, schedule: Q01DX001 (ip), vehicle: water) 4 of 10; (T/C endpoint: median survival time, dose: 40.0 mg/kg/injection, schedule: Q08DX002 (ip), vehicle: water) 5 of 10.
`CC[C@@]1(O)C(=O)OCc2c1cc1n(c2=O)Cc2cc3ccccc3[n+]([O-])c2-1`: the T/C was 144 % of control (T/C endpoint: mean survival time, dose: 2.0 mg/kg/injection, schedule: Q01DX015 (ip), vehicle: saline); 131 % of control (T/C endpoint: mean survival time, dose: 4.0 mg/kg/injection, schedule: Q01DX015 (ip), vehicle: saline); 136 % of control (T/C endpoint: mean survival time, dose: 25.0 mg/kg/injection, schedule: Q01DX001 (ip), vehicle: saline); 147 % of control (T/C endpoint: mean survival time, dose: 50.0 mg/kg/injection, schedule: Q01DX001 (ip), vehicle: saline). Where the note is “T/C endpoint: mean survival time, dose: 16.0 mg/kg/injection, schedule: Q01DX015 (ip), vehicle: saline”, the survivor count is recorded as 6 of 6.
Take `CC1(C)CCC(C)(C)c2c1ccc(O)c2Cc1c(O)ccc2c1C(C)(C)CCC2(C)C`: the survivor count is given as 6 of 6 (T/C endpoint: mean survival time, dose: 100.0 mg/kg/injection, schedule: Q01DX001 (ip), vehicle: saline) and 6 of 6 (T/C endpoint: mean survival time, dose: 400.0 mg/kg/injection, schedule: Q01DX001 (ip), vehicle: saline).
As to `CCC(C)C(CCN(C)C)(CNC(=O)CN(CC)CC)c1cccc2ccccc12` (centres undefined), the survivor count (T/C endpoint: mean survival time, dose: 400.0 mg/kg/injection, schedule: Q01DX009 (ip), vehicle: saline) is given as 0 of 6.
Turning to `CCCCCCCCCNC(=O)Nc1cccc(Cl)c1C`, the survivor count (T/C endpoint: mean survival time, dose: 400.0 mg/kg/injection, schedule: Q01DX009 (ip), vehicle: saline with Tween-80) is given as 6 of 6.
In the case of `CC(Cl)CN(CC(C)Cl)C(=O)OCC(NC(=O)OCc1ccccc1)C(=O)OCc1ccccc1` (centres undefined), the survivor count is recorded as 6 of 6 under setting [1] and 6 of 6 under setting [2].
For `CCCCCCCCCCCCCCCCCC(=O)OCC(O)COC(C)=O` (centres undefined), the survivor count (T/C endpoint: mean survival time, dose: 50.0 mg/kg/injection, schedule: Q01DX009 (ip), vehicle: saline with Tween-80) is given as 3 of 3.
With `[Cl][Pt+2]([Cl])([Cl])[Cl].c1ccc(C2CC[N-]CC2)cc1.c1ccc(C2CC[N-]CC2)cc1`, the survivor count is listed as 5 of 6 (T/C endpoint: mean survival time, dose: 200.0 mg/kg/injection, schedule: Q01DX009 (ip), vehicle: water) and 1 of 6 (T/C endpoint: mean survival time, dose: 400.0 mg/kg/injection, schedule: Q04DX003 (ip), vehicle: water).
On to `Nc1nc2ncc(CCNc3ccc(C(=O)NC(CCC(=O)O)C(=O)O)cc3)nc2c(=O)[nH]1` (centres undefined), for which the survivor count (T/C endpoint: mean survival time, dose: 150.0 mg/kg/injection, schedule: Q01DX Z (ip), vehicle: other) is 0 of 8.
Take `CCN(CC)c1ccc(NC(=S)Nc2cccc(C(F)(F)F)c2)c(C)c1`: under setting [2], the survivor count is given as 6 of 6.
As for `CCOC(=O)c1cnc(SC)nc1Nc1cccc(Cl)c1`, under setting [1], the survivor count is recorded as 6 of 6.
Take `COc1cc(Nc2ncnc(N)c2[N+](=O)[O-])cc(OC)c1OC`: the survivor count is 6 of 6 (T/C endpoint: mean survival time, dose: 100.0 mg/kg/injection, schedule: Q04DX003 (ip), vehicle: saline with Tween-80) and 6 of 6 under setting [3].
`CCCCCCCCP(=O)(CCCC)CCCC`: the survivor count under setting [3] is reported as 0 of 3.
Regarding `c1cc[c]([Sn]([c]2ccccc2)([c]2ccccc2)[n]2nnc3ccccc32)cc1`, the survivor count reads like this: (T/C endpoint: mean survival time, dose: 100.0 mg/kg/injection, schedule: Q04DX002 (ip), vehicle: saline with Tween-80) 0 of 3; (T/C endpoint: mean survival time, dose: 200.0 mg/kg/injection, schedule: Q04DX002 (ip), vehicle: saline with Tween-80) 0 of 3; (T/C endpoint: mean survival time, dose: 400.0 mg/kg/injection, schedule: Q04DX002 (ip), vehicle: saline with Tween-80) 0 of 3.
In the case of `CCC1=C[C@H]2CN(CCc3c([nH]c4ccccc34)[C@@](C(=O)OC)(c3cc4c(cc3OC)N(C)[C@H]3[C@@](O)(C(=O)NC)[C@H](OC(C)=O)[C@]5(CC)C=CCN6CC[C@]43[C@@H]65)C2)C1`, the T/C by setting is: (T/C endpoint: mean survival time, dose: 0.12 mg/kg/injection, schedule: Q01DX009 (ip), vehicle: water) 139 % of control; (T/C endpoint: mean survival time, dose: 0.5 mg/kg/injection, schedule: Q01DX009 (ip), vehicle: saline) 129 % of control; (T/C endpoint: mean survival time, dose: 0.5 mg/kg/injection, schedule: Q01DX009 (ip), vehicle: water) 142 % of control. Further, the survivor count (T/C endpoint: mean survival time, dose: 2.0 mg/kg/injection, schedule: Q01DX009 (ip), vehicle: water) is recorded as 5 of 6.
On to `CC1(C)OC2OC(C(O)CSCc3ccccc3)C(O)C2O1` (centres undefined), for which the survivor count (T/C endpoint: mean survival time, dose: 400.0 mg/kg/injection, schedule: Q01DX001 (ip), vehicle: saline with Tween-80) is 3 of 6.
Consider `O=C1[CH2][Hg][O]1`, for which the survivor count by setting is: (T/C endpoint: mean survival time, dose: 12.5 mg/kg/injection, schedule: Q04DX002 (ip), vehicle: Klucel (hydroxypropylcellulose) (HPC)) 0 of 3; (T/C endpoint: mean survival time, dose: 25.0 mg/kg/injection, schedule: Q04DX002 (ip), vehicle: Klucel (hydroxypropylcellulose) (HPC)) 0 of 3; (T/C endpoint: mean survival time, dose: 50.0 mg/kg/injection, schedule: Q04DX002 (ip), vehicle: Klucel (hydroxypropylcellulose) (HPC)) 1 of 3; (T/C endpoint: mean survival time, dose: 100.0 mg/kg/injection, schedule: Q04DX002 (ip), vehicle: Klucel (hydroxypropylcellulose) (HPC)) 0 of 3; (T/C endpoint: mean survival time, dose: 200.0 mg/kg/injection, schedule: Q04DX002 (ip), vehicle: Klucel (hydroxypropylcellulose) (HPC)) 0 of 3; (T/C endpoint: mean survival time, dose: 400.0 mg/kg/injection, schedule: Q04DX002 (ip), vehicle: Klucel (hydroxypropylcellulose) (HPC)) 0 of 3.
`CC1=CC2=C(C=O)C(=O)[C@](C)(O)[C@@H](O)C2=CO1`: the survivor count is 5 of 6 (T/C endpoint: mean survival time, dose: 100.0 mg/kg/injection, schedule: Q01DX009 (ip), vehicle: saline with Tween-80); 2 of 6 (T/C endpoint: mean survival time, dose: 200.0 mg/kg/injection, schedule: Q01DX009 (ip), vehicle: saline with Tween-80); 1 of 6 under setting [3].
Turning to `O=C(N/N=C/c1ccc(Cl)cc1)Nc1ccccc1`, the survivor count under setting [2] is recorded as 0 of 6.
For the compound `CCCCCCC#CC(=O)OCC`, the survivor count (T/C endpoint: mean survival time, dose: 400.0 mg/kg/injection, schedule: Q04DX002 (ip), vehicle: saline) was 3 of 3.
